In patent US7989466B2 (Cambridge Enterprise Limited, priority 1999, dated 2011):

Experiment: peptide made by a vendor (peptide synthesis; Rink amide resin)
Conditions: whole synthesis, triacetate salt

| Substance | final purity (method not given) (HPLC) | final HPLC purity (TFA salts) |
| --- | --- | --- |
| -CQIWKQKPDLC-- | >97% | – |
| n′-CLDPKQKWIQC-c′ | – | >90% |
